Results published in PubChem BioAssay AID192 (DTP/NCI, 2004).
The list does not hold the whole screen: it gathers tests that were run many times, whatever their T/C, doses with no T/C, and many T/C values between a quarter and a half above the control. Further doses and runs are listed elsewhere. T/C is the treated group as % of the vehicle group. Some entries give survivors of the animals treated and no T/C: the source holds a T/C of zero for them, seemingly a mark for toxic or unscored doses. Some survivor counts are full or nearly so, which does not show that the dose was tolerated: survival well below the control is almost never listed, so the zero probably covers shortened survival too. Counts of survivors are from the toxicity check (mostly the fifth day) where no day follows; animals may have died later. Schedules are NCI's codes, read here as Q, the interval in days (D) or hours (H), X, the number of doses. Some entries were tested several times; their values stand side by side, smallest first. Signs of the kind (2×) stand for listed records that agree. For survival time, the PubChem record calls one and a half times the control and up active, and a quarter to a half above the control has no call in these data; cut-offs in other NCI protocols can differ. Some T/C values carry the count of animals alive at the toxicity check (mostly the fifth day); where none is given, no animal had died by that day.

System: BDF1 mice, B16 melanoma ip, median survival T/C
Assay: NCI In Vivo Anticancer Drug Screen. Data for tumor model B16 Melanoma (intraperitoneal) in B6D2F1 (BDF1) mice
Conditions: T/C endpoint: median survival time, higher T/C = longer survival
Method in brief: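 Transplantable tumor model; survival or tumor size measured; reported as T/C, treated over vehicle control.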

[1] = dose: 200.0 mg/kg/injection, schedule: Q01DX009 (ip), vehicle: saline with Tween-80

CN(C)c1nc(N(C)C)nc(N(C)C)n1 was tested. Which T/C (dose: 25.0 mg/kg/injection, schedule: Q01DX009 (ip), vehicle: saline with Tween-80, evaluated on day 45) did it give?
The T/C was 101 % of control.

What about the T/C (dose: 25.0 mg/kg/injection, schedule: Q01DX009 (ip), vehicle: saline with Tween-80, evaluated on day 60) of the same molecule?
The T/C was 97, 98 (2×), 100 (3×), 103, 105, 107 [9 of 10 alive], 126 % of control.

And the T/C (dose: 50.0 mg/kg/injection, schedule: Q01DX009 (ip), vehicle: saline with Tween-80, evaluated on day 45)?
Its T/C is 109 % of control.

And the T/C (dose: 50.0 mg/kg/injection, schedule: Q01DX009 (ip), vehicle: saline with Tween-80, evaluated on day 60)?
Its T/C is 98, 100, 101 (2×), 102, 103, 105 [9 of 10 alive], 109, 110, 115 % of control.

And the T/C (dose: 100.0 mg/kg/injection, schedule: Q01DX009 (ip), vehicle: saline with Tween-80, evaluated on day 45)?
Its T/C is 102 % of control.

And the T/C (dose: 100.0 mg/kg/injection, schedule: Q01DX009 (ip), vehicle: saline with Tween-80, evaluated on day 60)?
The T/C was 98 (2×), 107 (2×), 108, 109, 110, 111, 112, 113 % of control [9 of 10 alive].

What about the survivor count (dose: 160.0 mg/kg/injection, schedule: Q01DX009 (ip), vehicle: saline with Tween-80) of the same molecule?
Its survivor count is 9 of 10.

And the T/C [1]?
Its T/C is 86 [9 of 10 alive], 99 [9 of 10 alive], 104 % of control.

What about the survivor count [1] of the same molecule?
Its survivor count is 9 of 10 (2×) and 10 of 10.

And the survivor count (dose: 400.0 mg/kg/injection, schedule: Q01DX009 (ip), vehicle: saline with Tween-80)?
The survivor count was 0 of 10, 1 of 10, 2 of 10, 3 of 10, 4 of 10, 5 of 10, 6 of 10, 7 of 10.

And the survivor count (dose: 400.0 mg/kg/injection, schedule: Q02DX009 (ip), vehicle: Klucel (hydroxypropylcellulose) (HPC))?
Its survivor count is 9 of 10.

How did the survivor count (dose: 400.0 mg/kg/injection, schedule: Q01DX009 (ip), vehicle: Klucel (hydroxypropylcellulose) (HPC)) turn out when CCC(CO)NC(=O)C1C=C2c3cccc4[nH]cc(c34)CC2N(C)C1 (configuration not stated) was run?
The survivor count was 0 of 10.
